The source of these data is patent publication US20050163814A1, “Granulated phosphoroamido(di) thioates” (priority 2002, published 2005).

The nature of this data set: Compaction via extrusion into granules. To be noted: compaction behaviour on extrusion.

As to `COP(=O)(NC(C)=O)SC` (centres unmarked) [Ex. 3, acephate, reference compound], the extrusion result (listed as Unmilled) is “inconsistent compaction”. Take `COP(=O)(NC(C)=O)SC` (centres unmarked) [Ex. 4, acephate]: the extrusion result (listed as Milled) is recorded as “consistent with high”.
